Source: PubChem BioAssay AID1345085 (National Center for Advancing Translational Sciences (NCATS), 2018)
The inconclusive results got no clear call from the source; some entries with a clear call stand among them for comparison. Potencies of inconclusive entries are doubtful fits and often do not repeat. Calls of active or inactive are those of the source. The call rests on the fitted dose curve; in most records, active means well fitted cell-killing curve with a large enough effect; inconclusive means small, poorly fitted or top-dose-only effect, or effect the other way; inactive means no such curve, though single readings can be large or run the other way.

These compounds were tested on Jar (assay: Confirmatory qHTS for gynecologic anti-cancer compounds from libraries of approved drugs and bioactive compounds). Conditions: gynecologic cancer cell panel viability, ATPlite luminescence, 48 h; series mostly up to 57.6 µM; activity change, negative = viability loss: at the top concentration.
Outline: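 Seeding 1,000 cells per well preceded overnight (16 h) attachment, after which 48 h drug treatment across 57.5 uM–0.977 nM (11 points) was applied. Remaining cellular ATP, detected by ATPlite luminescence, defined IC50.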
Further: nearly all actives have a fitted effect of over 55% in size.
On the % scale 0 is the no-effect control and ±100 the full control effect; potency means the concentration at half of the fitted maximal effect.

**Q.** With `O=c1c(-c2ccc(O)cc2)coc2cc(O)cc(O)c12` as the compound, how does the “activity change, negative = viability loss” value read?
**A.** inactive: -2.15%

**Q.** `CN(C)c1ccc2nc3ccc(=[N+](C)C)cc-3sc2c1` was tested. Which Potency did it give?
**A.** inconclusive: 21.7 µM [cytotoxic, single point]

**Q.** With `Cc1c(NC(=O)OCC2COCCN2)cn2ncnc(Nc3ccc4c(cnn4Cc4cccc(F)c4)c3)c12` (configuration not stated) as the compound, how does the Potency read?
**A.** inconclusive: 43.2 µM [cytotoxic, single point]

**Q.** How did the “activity change, negative = viability loss” value turn out when `COC(=O)c1ccc2c(C(=Nc3ccc(N(C)C(=O)CN4CCN(C)CC4)cc3)c3ccccc3)c(O)[nH]c2c1` was run?
**A.** inactive: -10.2%

**Q.** For `Cc1nc(N)nc(N)c1-c1ccc(Cl)c(Cl)c1`, which Potency is on record?
**A.** active: 4.85 µM

**Q.** `CN(C)c1ccc(-c2nc3ncc(Cl)c(N4CCN(CC(=O)Nc5nccs5)CC4)c3[nH]2)cc1` was tested. Which Potency did it give?
**A.** inconclusive: 0.0211 µM [rising, full curve, poor fit]

**Q.** `COc1cc(N2CCC(N)CC2)ccc1Nc1ncc(Cl)c(-c2c[nH]c3ccccc23)n1` was tested. Which Potency did it give?
**A.** inconclusive: 43.2 µM [cytotoxic, single point]

**Q.** How did the “activity change, negative = viability loss” value turn out when `CCN(CC)CCCC(C)Nc1ccnc2cc(Cl)ccc12` (configuration not stated) was run?
**A.** inactive: 12.7% [at 19.5 µM]

**Q.** `COc1c(C)c2c(c(O)c1C/C=C(\C)CCC(=O)O)C(=O)OC2` was tested. Which Potency did it give?
**A.** inconclusive: 30.6 µM [cytotoxic, partial curve, poor fit]

**Q.** Which Potency does the source give for `CN(C[C@@H]1COCCO1)S(=O)(=O)Nc1ccc2ccc3ncc(-c4cnn(C)c4)cc3c(=O)c2c1` here?
**A.** inconclusive: 34.3 µM [cytotoxic, single point]

**Q.** For `CN(Cc1cnc2nc(N)nc(N)c2n1)c1ccc(C(=O)N[C@@H](CCC(=O)O)C(=O)O)cc1`, which Potency is on record?
**A.** inconclusive: 0.137 µM [cytotoxic, single point]

**Q.** How did the “activity change, negative = viability loss” value turn out when `CN(C)CC/C=C1\c2ccccc2COc2ccccc21` was run?
**A.** inactive: -9.39%

**Q.** How did the Potency turn out when `CN(C)C1CCN(C(=O)c2ccc(NC(=O)Nc3nc(N4CCOCC4)nc(N4CCOCC4)n3)cc2)CC1` was run?
**A.** inconclusive: 3.06 µM [cytotoxic, full curve]

**Q.** `Nc1ncnc2c1ncn2[C@@H]1O[C@H](CO)C[C@H]1O` was tested. Which Potency did it give?
**A.** inconclusive: 0.344 µM [rising, full curve, poor fit]

**Q.** For `FC(F)(F)c1ccc(/C=C/c2nc(COc3ccc(CCCCn4ccnn4)cc3)co2)cc1`, which Potency is on record?
**A.** active: 0.0172 µM

**Q.** With `Oc1cn2c(n1)Nc1ccc(Cl)c(Cl)c1C2` as the compound, how does the “activity change, negative = viability loss” value read?
**A.** inactive: 17.7% [at 19.5 µM]

**Q.** Which Potency does the source give for `O=C1Cc2cc(CCN3CCN(c4nsc5ccccc45)CC3)c(Cl)cc2N1` here?
**A.** inconclusive: 0.0069 µM [rising, full curve, poor fit]

**Q.** `CN(NC(=O)CC(=O)NN(C)C(=S)c1ccccc1)C(=S)c1ccccc1` was tested. Which Potency did it give?
**A.** inconclusive: 0.137 µM [cytotoxic, full curve, poor fit]

**Q.** How did the Potency turn out when `CN(c1nccc(=O)[nH]1)C1CCN(c2nc3ccccc3n2Cc2ccc(F)cc2)CC1` was run?
**A.** inconclusive: 3.06 µM [rising, partial curve, poor fit]

**Q.** `Cc1cc(Nc2nc(N[C@@H](C)c3ncc(F)cn3)ncc2Cl)n[nH]1` was tested. Which “activity change, negative = viability loss” value did it give?
**A.** inactive: 19.1%

**Q.** How did the activity change, negative = viability loss turn out when `CC[C@H](Nc1ncnc2nc[nH]c12)c1nc2cccc(F)c2c(=O)n1-c1ccccc1` was run?
**A.** inactive: -10.1% [at 10.7 µM]

**Q.** How did the Potency turn out when `COc1ccc(-c2cc3nccn3c(Nc3ncccc3C(N)=O)n2)cc1OC` was run?
**A.** inconclusive: 17.2 µM [cytotoxic, partial curve]
